PubChem BioAssay AID1159578, Peter MacCallum Cancer Centre | 2015
The deposit covers about 18,000 reagents; below is a part drawn at random. In the full data, about 1,030 (5.7%) were called active. 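Inactive calls also include pools with fewer than 3300 nuclei, whose migration was not assessed.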 Raw values vary from plate to plate and are shown uncorrected.

Purpose: 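siRNA pools altering how lymphatic endothelial cells close a scratch wound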 (primary screen)
Cells: human lymphatic endothelial cells
Knock-down reagent: siRNA pool against human genes, 40 nM
Time to read-out: 48 h after transfection
Measured: 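High-content imaging of dye-stained cells in a scratch assay measures filled wound area and nuclei per well; duplicate means given as ratio to mock and robust z-score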
Reading the numbers: migration robust z-score: higher = faster migration into the scratch; migration relative to mock: higher = more scratch area covered than mock; nuclei per well: higher = more cells in the well
Active means: 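Migration changed when robust z exceeds 2 or falls below -2 and mean nuclei number is at least 3300; otherwise not called changed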
Meaning of the calls: active = migration changed; inactive = no migration change, or too few cells

Target gene | PubChem SID | migration robust z-score | migration class with cell-count check | migration relative to mock | nuclei per well, duplicate mean | outcome
FUT2 (fucosyltransferase 2 (H blood group)) | SID255349766 | -0.16 | migration z between -2 and 2; enough cells | 0.77 | 5938 | inactive
VPS13D (vacuolar protein sorting 13 homolog D) | SID255358482 | 0.31 | migration z between -2 and 2; enough cells | 0.96 | 5990 | inactive
RRAGA (Ras related GTP binding A) | SID255355276 | -1.17 | migration z between -2 and 2; enough cells | 0.58 | 5926 | inactive
CBLL1 (Cbl proto-oncogene like 1) | SID255360532 | 1.42 | migration z between -2 and 2; enough cells | 1.08 | 6558 | inactive
TMUB1 (transmembrane and ubiquitin like domain containing 1) | SID255361029 | 0.54 | migration z between -2 and 2; enough cells | 1.02 | 5704 | inactive
GTF2IRD2 (GTF2I repeat domain containing 2) | SID255361220 | -0.51 | migration z between -2 and 2; enough cells | 0.76 | 6024 | inactive
MC3R (melanocortin 3 receptor) | SID255350894 | -0.96 | migration z between -2 and 2; enough cells | 0.62 | 7396 | inactive
OR4E2 (olfactory receptor family 4 subfamily E member 2) | SID255356838 | 2.27 | migration z above 2; enough cells | 1.47 | 5922 | active
PIWIL4 (piwi like RNA-mediated gene silencing 4) | SID255363197 | 1.03 | migration z between -2 and 2; enough cells | 1.15 | 5722 | inactive
POPDC3 (popeye domain cAMP effector 3) | SID255359868 | 0.5 | migration z between -2 and 2; enough cells | 1.02 | 5974 | inactive
IRAG1 (inositol 1,4,5-triphosphate receptor associated 1) | SID255355006 | -0.4 | migration z between -2 and 2; enough cells | 0.78 | 6414 | inactive
DDX6 (DEAD-box helicase 6) | SID255349271 | -0.44 | migration z between -2 and 2; enough cells | 0.72 | 5274 | inactive
PITPNA (phosphatidylinositol transfer protein alpha) | SID255351594 | -1.01 | migration z between -2 and 2; enough cells | 0.62 | 6216 | inactive
POLR2D (RNA polymerase II subunit D) | SID255351684 | -4.62 | under 3300 nuclei; migration not judged | -0.08 | 2834 | inactive
MORC3 (MORC family CW-type zinc finger 3) | SID255356291 | 1.36 | migration z between -2 and 2; enough cells | 1.23 | 5855 | inactive
USH1G (USH1 protein network component sans) | SID255362622 | -1.3 | migration z between -2 and 2; enough cells | 0.55 | 5192 | inactive
SRRT (serrate, RNA effector molecule) | SID255357802 | 0.16 | migration z between -2 and 2; enough cells | 0.92 | 6264 | inactive
ZSCAN31 (zinc finger and SCAN domain containing 31) | SID255359890 | 0.46 | migration z between -2 and 2; enough cells | 1 | 6699 | inactive
TMEM139 (transmembrane protein 139) | SID255363001 | 1.8 | migration z between -2 and 2; enough cells | 1.36 | 6194 | inactive
ZNF625 (zinc finger protein 625) | SID255361843 | -0.83 | migration z between -2 and 2; enough cells | 0.67 | 4880 | inactive
HCRTR2 (hypocretin receptor 2) | SID255350162 | 1.5 | migration z between -2 and 2; enough cells | 1.09 | 6759 | inactive
SDAD1 (SDA1 domain containing 1) | SID255358453 | 0.11 | migration z between -2 and 2; enough cells | 0.91 | 4627 | inactive
GALNT2 (polypeptide N-acetylgalactosaminyltransferase 2) | SID255349821 | 0.21 | migration z between -2 and 2; enough cells | 0.84 | 4767 | inactive
PEX11G (peroxisomal biogenesis factor 11 gamma) | SID255362047 | -1.99 | migration z between -2 and 2; enough cells | 0.36 | 3945 | inactive
TBC1D28 (TBC1 domain family member 28) | SID255364455 | 1.37 | migration z between -2 and 2; enough cells | 1.24 | 3648 | inactive
CCDC71L (coiled-coil domain containing 71 like) | SID255363870 | 0.18 | migration z between -2 and 2; enough cells | 0.94 | 5894 | inactive
ZFX (zinc finger protein X-linked) | SID255353176 | 0.14 | migration z between -2 and 2; enough cells | 0.92 | 6768 | inactive
MTERF2 (mitochondrial transcription termination factor 2) | SID255360738 | 0.56 | migration z between -2 and 2; enough cells | 1.03 | 5852 | inactive
SORBS3 (sorbin and SH3 domain containing 3) | SID255354870 | 1.26 | migration z between -2 and 2; enough cells | 1.22 | 6782 | inactive
CUX2 (cut like homeobox 2) | SID255356156 | -1.43 | migration z between -2 and 2; enough cells | 0.52 | 4642 | inactive
FMO4 (flavin containing dimethylaniline monoxygenase 4) | SID255349730 | 0.08 | migration z between -2 and 2; enough cells | 0.82 | 6490 | inactive
MPPE1 (metallophosphoesterase 1) | SID255360106 | 1.22 | migration z between -2 and 2; enough cells | 1.04 | 5938 | inactive
NDUFAF5 (NADH:ubiquinone oxidoreductase complex assembly factor 5) | SID255360224 | 0.71 | migration z between -2 and 2; enough cells | 1.07 | 5536 | inactive
ZNF714 (zinc finger protein 714) | SID255363369 | -0.88 | migration z between -2 and 2; enough cells | 0.66 | 6294 | inactive
ANKRD17 (ankyrin repeat domain 17) | SID255356644 | -0.89 | migration z between -2 and 2; enough cells | 0.65 | 6158 | inactive
FAM53C (family with sequence similarity 53 member C) | SID255357639 | -0.08 | migration z between -2 and 2; enough cells | 0.86 | 5034 | inactive
RNASE7 (ribonuclease A family member 7) | SID255361447 | -2.64 | migration z below -2; enough cells | 0.3 | 3407 | active
STK3 (serine/threonine kinase 3) | SID255352676 | -0.13 | migration z between -2 and 2; enough cells | 0.78 | 6630 | inactive
STRIP2 (striatin interacting protein 2) | SID255359399 | -1.72 | migration z between -2 and 2; enough cells | 0.44 | 5355 | inactive
ADCYAP1R1 (ADCYAP receptor type I) | SID255348187 | 1.46 | migration z between -2 and 2; enough cells | 1.08 | 7630 | inactive
NECTIN4 (nectin cell adhesion molecule 4) | SID255360914 | -0.75 | migration z between -2 and 2; enough cells | 0.66 | 5956 | inactive
FAH (fumarylacetoacetate hydrolase) | SID255349622 | -0.07 | migration z between -2 and 2; enough cells | 0.86 | 5912 | inactive
TMC1 (transmembrane channel like 1) | SID255362428 | 3.29 | migration z above 2; enough cells | 1.74 | 8528 | active
SORCS2 (sortilin related VPS10 domain containing receptor 2) | SID255359452 | -0.76 | migration z between -2 and 2; enough cells | 0.66 | 5891 | inactive
PCDHB3 (protocadherin beta 3) | SID255359018 | 3.04 | migration z above 2; enough cells | 1.68 | 6819 | active
SAPCD1 (suppressor APC domain containing 1) | SID255365780 | 0.34 | migration z between -2 and 2; enough cells | 0.98 | 6570 | inactive
ZNF774 (zinc finger protein 774) | SID255365133 | 0.03 | migration z between -2 and 2; enough cells | 0.89 | 6206 | inactive
TNFRSF1B (TNF receptor superfamily member 1B) | SID255352917 | -2.8 | migration z below -2; enough cells | 0.26 | 4402 | active
AKT3 (AKT serine/threonine kinase 3) | SID255354729 | -3.25 | migration z below -2; enough cells | 0.18 | 4096 | active
APH1B (aph-1B gamma-secretase subunit) | SID255361006 | -0.91 | migration z between -2 and 2; enough cells | 0.63 | 5670 | inactive
SELENOS (selenoprotein S) | SID255358895 | -0.39 | migration z between -2 and 2; enough cells | 0.78 | 4879 | inactive
EFL1 (elongation factor like GTPase 1) | SID255360344 | 0.06 | migration z between -2 and 2; enough cells | 0.9 | 7172 | inactive
CLTB (clathrin light chain B) | SID255348971 | -1.99 | under 3300 nuclei; migration not judged | 0.42 | 2638 | inactive
NOM1 (nucleolar protein with MIF4G domain 1) | SID255359938 | 1.5 | migration z between -2 and 2; enough cells | 1.27 | 7231 | inactive
GET1 (guided entry of tail-anchored proteins factor 1) | SID255353146 | 0.67 | migration z between -2 and 2; enough cells | 1.05 | 5434 | inactive
UBE2D1 (ubiquitin conjugating enzyme E2 D1) | SID255353029 | 1.5 | migration z between -2 and 2; enough cells | 1.09 | 4827 | inactive
APRG1 (APRG1 tumor suppressor candidate) | SID255365056 | 1.55 | migration z between -2 and 2; enough cells | 1.29 | 6048 | inactive

7 entries from above, set out differently:
HCRTR2 (hypocretin receptor 2) [SID255350162] → migration robust z-score = 1.5; migration class with cell-count check = migration z between -2 and 2; enough cells; migration relative to mock = 1.09; nuclei per well, duplicate mean = 6759; outcome = inactive
SDAD1 (SDA1 domain containing 1) [SID255358453] → migration robust z-score = 0.11; migration class with cell-count check = migration z between -2 and 2; enough cells; migration relative to mock = 0.91; nuclei per well, duplicate mean = 4627; outcome = inactive
GALNT2 (polypeptide N-acetylgalactosaminyltransferase 2) [SID255349821] → migration robust z-score = 0.21; migration class with cell-count check = migration z between -2 and 2; enough cells; migration relative to mock = 0.84; nuclei per well, duplicate mean = 4767; outcome = inactive
PEX11G (peroxisomal biogenesis factor 11 gamma) [SID255362047] → migration robust z-score = -1.99; migration class with cell-count check = migration z between -2 and 2; enough cells; migration relative to mock = 0.36; nuclei per well, duplicate mean = 3945; outcome = inactive
TBC1D28 (TBC1 domain family member 28) [SID255364455] → migration robust z-score = 1.37; migration class with cell-count check = migration z between -2 and 2; enough cells; migration relative to mock = 1.24; nuclei per well, duplicate mean = 3648; outcome = inactive
CCDC71L (coiled-coil domain containing 71 like) [SID255363870] → migration robust z-score = 0.18; migration class with cell-count check = migration z between -2 and 2; enough cells; migration relative to mock = 0.94; nuclei per well, duplicate mean = 5894; outcome = inactive
ZFX (zinc finger protein X-linked) [SID255353176] → migration robust z-score = 0.14; migration class with cell-count check = migration z between -2 and 2; enough cells; migration relative to mock = 0.92; nuclei per well, duplicate mean = 6768; outcome = inactive
